# Primary screen of a compound library

The chains behind the UniProt entries cited, without tags or fusion partners.
UniProt I6X8D2, whole entry: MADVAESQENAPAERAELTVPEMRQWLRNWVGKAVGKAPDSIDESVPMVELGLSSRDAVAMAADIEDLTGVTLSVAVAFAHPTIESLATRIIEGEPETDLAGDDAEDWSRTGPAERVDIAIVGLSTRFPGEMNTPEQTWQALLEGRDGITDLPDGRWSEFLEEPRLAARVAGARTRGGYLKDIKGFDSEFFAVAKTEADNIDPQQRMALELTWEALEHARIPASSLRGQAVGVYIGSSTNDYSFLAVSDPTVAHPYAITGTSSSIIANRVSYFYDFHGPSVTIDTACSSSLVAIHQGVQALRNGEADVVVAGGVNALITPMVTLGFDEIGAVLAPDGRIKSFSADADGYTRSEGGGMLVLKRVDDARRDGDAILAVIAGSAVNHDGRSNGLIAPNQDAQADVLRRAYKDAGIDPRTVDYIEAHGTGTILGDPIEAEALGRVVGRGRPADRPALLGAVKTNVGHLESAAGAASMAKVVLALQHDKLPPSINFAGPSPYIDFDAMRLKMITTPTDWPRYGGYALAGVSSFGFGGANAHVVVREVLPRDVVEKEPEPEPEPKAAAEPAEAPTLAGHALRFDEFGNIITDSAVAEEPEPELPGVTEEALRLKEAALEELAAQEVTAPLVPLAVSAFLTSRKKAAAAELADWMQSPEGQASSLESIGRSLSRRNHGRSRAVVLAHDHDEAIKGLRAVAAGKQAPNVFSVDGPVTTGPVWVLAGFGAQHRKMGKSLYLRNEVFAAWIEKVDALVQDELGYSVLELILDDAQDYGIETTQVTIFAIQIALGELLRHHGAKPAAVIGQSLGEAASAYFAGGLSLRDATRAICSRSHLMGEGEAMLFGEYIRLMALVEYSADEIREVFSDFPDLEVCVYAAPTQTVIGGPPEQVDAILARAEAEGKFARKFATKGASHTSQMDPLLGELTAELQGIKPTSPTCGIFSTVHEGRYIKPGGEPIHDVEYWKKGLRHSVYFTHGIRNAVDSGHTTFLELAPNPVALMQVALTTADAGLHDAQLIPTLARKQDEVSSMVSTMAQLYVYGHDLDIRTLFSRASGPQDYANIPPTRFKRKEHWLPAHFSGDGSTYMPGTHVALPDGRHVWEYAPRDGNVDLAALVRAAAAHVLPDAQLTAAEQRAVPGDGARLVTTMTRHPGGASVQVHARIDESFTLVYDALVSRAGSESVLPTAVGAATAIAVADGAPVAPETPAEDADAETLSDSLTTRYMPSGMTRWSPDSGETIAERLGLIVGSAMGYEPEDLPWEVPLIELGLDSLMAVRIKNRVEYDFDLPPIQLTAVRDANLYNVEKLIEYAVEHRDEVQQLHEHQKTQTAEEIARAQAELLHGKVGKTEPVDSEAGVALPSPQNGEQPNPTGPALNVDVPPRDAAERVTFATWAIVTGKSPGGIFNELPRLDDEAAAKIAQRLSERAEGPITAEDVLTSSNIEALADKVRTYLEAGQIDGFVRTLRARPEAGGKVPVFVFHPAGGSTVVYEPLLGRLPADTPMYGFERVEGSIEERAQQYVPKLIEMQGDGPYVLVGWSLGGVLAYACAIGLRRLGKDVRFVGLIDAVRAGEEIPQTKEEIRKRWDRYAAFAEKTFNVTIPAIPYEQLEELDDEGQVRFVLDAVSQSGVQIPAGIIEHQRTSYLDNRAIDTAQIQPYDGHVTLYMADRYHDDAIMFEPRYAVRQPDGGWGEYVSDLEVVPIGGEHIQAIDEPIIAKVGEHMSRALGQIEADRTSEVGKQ

Source: ChEMBL document CHEMBL3988442, “University of Dundee, Small-Polar-MMV Screening Library” (2021).

Values are the deposited “Percent Effect”, in %. The controls that fix the scale are not given in the record; negative values are as filed. The compounds are a random part of those screened. A dash means the value is not listed here; it may have been measured.

Toxoplasma: 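Assay of Toxoplasma gondii numbers, read through their beta-galactosidase reporter with a colour substrate. Compounds at 10 µM. The record gives no direction; the compounds picked for IC50 retests had high values, so higher reads as fewer parasites. About 67,000 compounds were tested under these conditions; 0.38% (about 260) showed 50% or more at least once.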
Pks13 thioesterase: 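Enzyme assay of the thioesterase domain of polyketide synthase 13; the read-out is not stated. Target: Polyketide synthase Pks13, Mycobacterium tuberculosis (UniProt I6X8D2). Tested at 30 µM. The record gives no direction; the compounds picked for IC50 retests had high values, so higher reads as stronger inhibition. About 67,000 compounds were tested under these conditions; 0.46% (about 300) showed 50% or more at least once.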

| SMILES | Toxoplasma | Pks13 thioesterase |
|---|---|---|
| `Cn1ccnc1CN1CCC(c2nc3ccccc3n2C)CC1` | 6.464 | -8.845 |
| `CC(C)n1ncc2cc(NC(=O)N3CCC(C(N)=O)C3)cnc21` (stereo not shown) | 4.499 | -9.937 |
| `NC(=O)c1cccnc1N1CCN(c2ncnc3c2CCNC3)CC1` | -0.4035 | -25.47 |
| `CN(C)C1CCN(c2cc(-c3ccccc3)nc3ccnn23)C1` (stereo not shown) | -0.3199 | 34.38 |
| `O=C(c1ccc2[nH]nnc2c1)N1CCC(Nc2cccnn2)CC1` | -15.36 | -56.51 |
| `COc1ccc(C2CCN(S(=O)(=O)CCCC#N)CC2)cc1` | -13.76 | 3.792 |
| `CN1CCN(CCOc2ccc(NC(=O)c3ccoc3)cc2)CC1` | 6.311 | -12.42 |
| `CC1CN(CC2CCCC2)CCN1c1ccc2nncn2n1` (stereo not shown) | 2.245 | -2.671 |
| `CCOCc1ccccc1NC(=O)NC1CCN(C2CCCC2)C1` (stereo not shown) | 12.14 | -13.5 |
| `CC(C)(Oc1ccc(C(N)=O)cc1)C(=O)N(CCC#N)C1CC1` | 5.458 | 0.6594 |
| `CCc1onc(C)c1C(=O)N1CCC(c2cc3ncccc3cn2)CC1` | -15.92 | -1.886 |
| `CC[C@H](C)[C@H](N)C(=O)Nc1nc(-c2cnc(N(C)C)nc2)cs1` | -38.52 | 146.2 |
| `OC(CNCCn1cccn1)c1ccc(Br)cc1` (stereo not shown) | 9.597 | -28.75 |
| `CC(C)COc1cncc(N2CCCN(c3ncccn3)CC2)n1` | -5.204 | 14.62 |
| `O=C(c1ccccc1F)N1CCC2(CC1)CC(Oc1ccccn1)CO2` (stereo not shown) | - | -13.17 |
| `OCC1CCN(Cc2cc3c(cc2Br)OCCO3)CC1` | 0.6321 | -8.335 |
| `CC(C)N(CCO)C(=O)c1cc(COc2ccc3c(c2)CCCC3)on1` | -12.61 | 18.76 |
| `Cc1c(Cl)cc(C(=O)NCCc2ncnn2C)cc1Cl` | 17.09 | -43.11 |
| `COc1cnc(CN2CC(=O)N(c3ccc(C)cc3)CC2C)cc1O` (stereo not shown) | 1.535 | -2.28 |
| `O=S(=O)(c1ccc(-c2cnco2)cc1)N1CCC2(CCCNC2)C1` (stereo not shown) | -5.268 | -7.195 |
| `CC1CCCN(C(=O)c2cn(-c3ccc(C(F)(F)F)cn3)nn2)C1` (stereo not shown) | -14.63 | 15.02 |
| `CC(C)n1cnnc1CN(C)C(=O)c1cnn2ccccc12` | 4.888 | -1.325 |
| `COc1cccc(N2CCC(N3CCOC(C(F)(F)F)C3)CC2)c1` (stereo not shown) | -16.62 | -11.94 |
| `Cc1nn(C)c(N(C)C)c1CNCc1cccc(OCCN(C)C)c1` | 3.529 | -7.053 |
| `Cn1ccnc1CN(CCCO)C1CCCc2ccccc21` (stereo not shown) | -0.6536 | -41.1 |
| `COc1ccccc1N1CCC(N2CCOC(C(F)(F)F)C2)CC1` (stereo not shown) | -20.95 | -15.74 |
| `Cc1ccc(C(=O)N2CC[C@@]3(O)CCCC[C@H]3C2)cc1` | - | -9.769 |
| `CN(C)C(=O)CS(=O)(=O)Cc1cc(Cl)c2c(c1)OCCO2` | 1.068 | -1.838 |
| `Cc1ncsc1C(=O)N(C)Cc1ccccc1` | 18.98 | -16.71 |
| `Cc1cnc(C)c(N2CCCC(CC3CC3)(C(=O)O)C2)n1` (stereo not shown) | -0.4528 | -8.405 |
| `Cc1cnc(C(C)(C)NC(=O)NCc2ccc(C#N)cc2F)s1` | 3.962 | -3.771 |
| `O=C(c1c[nH]cn1)N1CCOCC2(C1)CN(c1ccccc1)C(=O)CO2` (stereo not shown) | - | -10.15 |
| `CN(C)CCOCc1cncc2c1CCN(C(=O)c1cscn1)C2` | -57.74 | -14.73 |
| `CN(C)CCNC(=O)c1cnc2c(c1)nc(-c1ccccc1Cl)n2C` | -0.05316 | -14.88 |
| `[H][C@@]12CNC[C@]1([H])[C@H]2CN1CCC(c2nnc(Cn3cncn3)n2CC)CC1` | -15.96 | - |
| `CCOc1cc(NC(=O)N2CCOC3(CCC3)C2)ccc1C` | 2.295 | -30.11 |
| `CC(C)C(=O)N1CCCC2(CCCN2CC2CCCC2)C1` (stereo not shown) | - | -0.9678 |
| `CC(C)c1ccc(CN2C(=O)C3(CCNCC3)Nc3ccccc32)cc1` | 2.243 | 0.753 |
| `Cc1ccc(C(=O)N2Cc3c(CN4CCCCC4)nn(C)c3C2)cc1F` | - | -1.194 |
| `NC(=O)C1CCN(C(=O)NCc2ccccc2Cn2ccnc2)CC1` | -2.375 | 6.011 |

The last 4 entries again:

For CC(C)C(=O)N1CCCC2(CCCN2CC2CCCC2)C1 (stereo not shown) the result was Pks13 thioesterase: -0.9678%.
For CC(C)c1ccc(CN2C(=O)C3(CCNCC3)Nc3ccccc32)cc1 the result was Toxoplasma: 2.243%; Pks13 thioesterase: 0.753%.
For Cc1ccc(C(=O)N2Cc3c(CN4CCCCC4)nn(C)c3C2)cc1F the result was Pks13 thioesterase: -1.194%.
For NC(=O)C1CCN(C(=O)NCc2ccccc2Cn2ccnc2)CC1 the result was Toxoplasma: -2.375%; Pks13 thioesterase: 6.011%.